The target of test [1] is T1, α5 (S. cerevisiae (endogenous in SK1)) (UniProt P32379).
T1 sequence: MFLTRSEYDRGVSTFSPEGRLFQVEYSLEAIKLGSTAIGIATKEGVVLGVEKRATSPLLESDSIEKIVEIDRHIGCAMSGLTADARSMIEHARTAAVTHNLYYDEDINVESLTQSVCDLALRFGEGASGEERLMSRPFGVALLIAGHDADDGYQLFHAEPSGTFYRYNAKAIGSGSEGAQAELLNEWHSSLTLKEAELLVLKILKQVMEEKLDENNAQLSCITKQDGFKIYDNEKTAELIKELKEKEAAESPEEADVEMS
Briefly: cryo-EM structure.

Sequences of proteins named here, by UniProt entry; tags and fusion partners are left off. A change or cut given only in a name is not applied to a line headed by its entry.
UniProt P43583: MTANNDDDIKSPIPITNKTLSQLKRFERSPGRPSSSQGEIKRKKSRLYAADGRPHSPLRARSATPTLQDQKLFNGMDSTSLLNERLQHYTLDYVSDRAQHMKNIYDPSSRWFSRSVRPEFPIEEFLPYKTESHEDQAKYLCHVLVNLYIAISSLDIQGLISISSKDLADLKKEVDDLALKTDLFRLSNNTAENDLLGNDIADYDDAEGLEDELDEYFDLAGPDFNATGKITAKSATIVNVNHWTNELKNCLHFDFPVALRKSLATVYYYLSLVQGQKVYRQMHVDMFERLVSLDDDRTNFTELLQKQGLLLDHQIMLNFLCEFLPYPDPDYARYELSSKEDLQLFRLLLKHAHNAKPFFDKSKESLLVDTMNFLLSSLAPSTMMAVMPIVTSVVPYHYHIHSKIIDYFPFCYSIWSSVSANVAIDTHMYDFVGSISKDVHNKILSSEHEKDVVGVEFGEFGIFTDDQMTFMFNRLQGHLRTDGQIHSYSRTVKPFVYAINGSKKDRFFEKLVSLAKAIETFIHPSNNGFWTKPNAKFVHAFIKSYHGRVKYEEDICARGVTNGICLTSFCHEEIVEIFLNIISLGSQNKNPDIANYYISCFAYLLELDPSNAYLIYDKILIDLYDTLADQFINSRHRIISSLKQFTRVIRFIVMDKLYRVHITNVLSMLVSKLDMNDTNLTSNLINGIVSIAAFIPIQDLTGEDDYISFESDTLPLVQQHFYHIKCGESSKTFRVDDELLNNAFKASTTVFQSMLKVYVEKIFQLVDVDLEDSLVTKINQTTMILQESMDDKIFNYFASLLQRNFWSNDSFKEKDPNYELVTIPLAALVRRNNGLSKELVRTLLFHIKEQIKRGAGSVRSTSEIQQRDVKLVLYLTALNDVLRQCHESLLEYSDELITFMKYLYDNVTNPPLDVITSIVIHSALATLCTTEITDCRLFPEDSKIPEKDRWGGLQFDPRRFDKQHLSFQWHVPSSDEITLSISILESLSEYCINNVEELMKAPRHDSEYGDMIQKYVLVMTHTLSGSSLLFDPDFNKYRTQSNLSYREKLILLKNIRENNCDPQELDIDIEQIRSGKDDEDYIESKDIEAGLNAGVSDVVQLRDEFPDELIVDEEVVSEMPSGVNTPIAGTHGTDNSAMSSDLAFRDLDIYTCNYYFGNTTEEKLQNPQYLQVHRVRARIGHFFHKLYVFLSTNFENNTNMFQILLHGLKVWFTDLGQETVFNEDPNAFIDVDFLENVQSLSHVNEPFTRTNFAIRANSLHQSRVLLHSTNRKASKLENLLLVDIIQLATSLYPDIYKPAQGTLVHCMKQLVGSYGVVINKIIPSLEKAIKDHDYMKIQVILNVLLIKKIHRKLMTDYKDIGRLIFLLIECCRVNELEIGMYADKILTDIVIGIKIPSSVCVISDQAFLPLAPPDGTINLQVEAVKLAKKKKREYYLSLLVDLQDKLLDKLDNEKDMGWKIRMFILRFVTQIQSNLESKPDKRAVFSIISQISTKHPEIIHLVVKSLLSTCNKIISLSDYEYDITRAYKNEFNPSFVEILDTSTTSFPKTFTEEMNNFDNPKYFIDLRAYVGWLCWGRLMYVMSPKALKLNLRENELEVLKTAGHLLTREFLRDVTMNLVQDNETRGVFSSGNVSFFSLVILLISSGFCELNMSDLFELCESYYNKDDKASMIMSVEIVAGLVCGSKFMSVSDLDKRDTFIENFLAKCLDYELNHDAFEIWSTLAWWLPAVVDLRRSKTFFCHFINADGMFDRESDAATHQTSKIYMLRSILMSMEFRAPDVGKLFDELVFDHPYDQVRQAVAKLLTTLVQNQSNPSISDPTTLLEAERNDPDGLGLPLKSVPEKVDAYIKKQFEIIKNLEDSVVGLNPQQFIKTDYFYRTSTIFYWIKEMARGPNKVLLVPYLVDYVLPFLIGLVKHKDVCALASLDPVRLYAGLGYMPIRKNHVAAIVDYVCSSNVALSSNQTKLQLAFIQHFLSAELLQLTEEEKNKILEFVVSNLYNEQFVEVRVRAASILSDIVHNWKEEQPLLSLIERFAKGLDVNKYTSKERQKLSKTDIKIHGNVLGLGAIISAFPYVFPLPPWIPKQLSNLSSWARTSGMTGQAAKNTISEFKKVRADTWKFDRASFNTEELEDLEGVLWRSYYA
UniProt P29311: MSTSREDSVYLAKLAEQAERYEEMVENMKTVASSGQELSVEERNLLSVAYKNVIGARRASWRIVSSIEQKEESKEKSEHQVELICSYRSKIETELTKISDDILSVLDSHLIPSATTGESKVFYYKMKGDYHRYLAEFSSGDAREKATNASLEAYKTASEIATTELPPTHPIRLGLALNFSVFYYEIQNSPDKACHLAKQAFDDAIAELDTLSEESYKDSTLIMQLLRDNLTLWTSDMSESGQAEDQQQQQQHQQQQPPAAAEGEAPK

In test [2] the target is 3x-Flag-tagged Blm10 (S. cerevisiae) (UniProt P43583). Briefly: cryo-EM structure.
Test [3] deals with Bmh1 (S. cerevisiae (endogenous in SK1)) (UniProt P29311). In words: cryo-EM structure.
Test [4] has as its target 3x-Flag-tagged Blm10 (S. cerevisiae) (UniProt P43583). In words: co-IP.
The target in test [5] is 3FLAG-Blm10 L1049D, L1052D (S. cerevisiae) (UniProt P43583). Briefly: co-IP.

These are yes or no findings as the source states them, for the method shown. For some assays here: Binding seen in cells or lysates may run through a third protein. Some binding calls cover weakened binding; strength is not graded here.

For “3x-Flag-tagged Blm10 (from UniProt P43583 1-2143)”, the binding entry in test [1] is recorded as “binds”.
On to Bmh1 (from UniProt P29311 1-267), for which the binding result in test [2] and in test [3] was “binds” throughout.
For Bmh1-3HA (from UniProt P29311 1-267), the binding entry in test [4] and in test [5] was “binds” in each case.
